A: 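Methionyl-tRNA synthetase (putative), Leishmania donovani (UniProt E9BF75). Primary screen of methionyl-tRNA synthetase; the read-out is not stated. The test concentration is not given. Values are per cent inhibition. Of about 68,000 compounds tested this way, about 24 (0.035%) reached 50% or more in at least one test.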
B: 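Assay on Mycobacterium tuberculosis, filed only as a heat shock assay from Cornell; the read-out is not stated. The concentration is filed as 10 mM, unlikely as a test dose, so the dose is not known. The record gives no direction; compounds that gave an IC50 in retests scored well above the rest, so higher reads as stronger inhibition. About 69,000 compounds were tested under these conditions; 1.4% (about 930) showed 50% or more at least once.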

Amino acid sequences for entries named in this document (tags omitted).
UniProt E9BF75, entry or part of it: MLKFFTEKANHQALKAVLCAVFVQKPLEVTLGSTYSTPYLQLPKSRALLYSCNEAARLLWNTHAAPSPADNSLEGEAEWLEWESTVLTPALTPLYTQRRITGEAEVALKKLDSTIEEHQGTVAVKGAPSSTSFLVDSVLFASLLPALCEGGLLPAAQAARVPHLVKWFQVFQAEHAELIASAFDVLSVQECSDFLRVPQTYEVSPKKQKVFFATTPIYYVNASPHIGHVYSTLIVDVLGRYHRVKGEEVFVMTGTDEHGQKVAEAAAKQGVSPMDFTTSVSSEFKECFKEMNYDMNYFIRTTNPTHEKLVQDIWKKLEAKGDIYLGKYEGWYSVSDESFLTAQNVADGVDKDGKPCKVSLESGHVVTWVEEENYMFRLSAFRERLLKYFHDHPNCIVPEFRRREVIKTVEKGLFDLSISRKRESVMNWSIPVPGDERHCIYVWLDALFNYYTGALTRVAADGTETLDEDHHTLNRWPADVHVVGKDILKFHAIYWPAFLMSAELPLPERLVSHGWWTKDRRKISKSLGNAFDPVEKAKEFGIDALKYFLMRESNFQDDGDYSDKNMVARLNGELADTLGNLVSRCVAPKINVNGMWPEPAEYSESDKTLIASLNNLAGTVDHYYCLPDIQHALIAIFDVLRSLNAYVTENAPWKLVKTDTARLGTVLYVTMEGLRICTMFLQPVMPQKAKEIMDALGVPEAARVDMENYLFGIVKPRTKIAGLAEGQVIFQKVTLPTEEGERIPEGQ

Results are percentages, as filed. How 0% and 100% were set is not recorded. Most values in the screen are low, and negative values occur. This is an unselected part of the compounds tested. A dash means the value is not listed here; it may have been measured.

Result for CN(C)C(=O)c1cc(-c2ccncc2)[nH]n1 was A: 5.278%; B: 9.377%.
Result for [H][C@@]12CN(Cc3ccc(OC)cc3)C[C@]1([H])OCC(=O)N2CC(N)=O was B: 2.403%.
Result for COCC(=O)NCCn1ccc2c(OC)cccc21 was A: 13.69%; B: 6.933%.
Result for CN(Cc1cccnc1)[C@@H]1CN(C(=O)c2ccco2)[C@@H]2CCCO[C@H]12 was A: 5.168%.
Result for Cc1cc(=O)c2ccccc2n1CC1CCNC1 (stereo not given) was A: 12.85%; B: 7.382%.
Result for Cc1ncnc2c1CCN(CC(=O)N(C)C)CC2.O=C(O)C(F)(F)F was B: 10.19%.
Result for CC1(C)CC(CN2CCC3(CCC(=O)N(CCO)C3)CC2)CCO1 (stereo not given) was A: 2.115%; B: -70%.
Result for CN(C)C[C@H]1C[C@@H]2CN(C(=O)c3ccno3)C[C@@H]2O1 was A: 13.77%.
Result for CC(O)CN1CCN(C(=O)c2ccc(Cn3cccn3)cc2)CC1 (stereo not given) was A: 13.73%; B: -1.009%.
Result for O=C(CN1CCCC1Cn1cncn1)NCCC1=CCCCC1 (stereo not given) was A: 22.25%; B: -6.358%.
Result for CN1CCCN(S(=O)(=O)c2cccc(C(=O)N3CCCCCC3)c2)CC1 was A: 4.393%; B: -15.82%.
Result for Cc1cnn(CC(=O)Nc2cc(-n3nnnc3C3CC3)ccc2F)c1 was A: 3.064%; B: -3.034%.
Result for O=C(Cn1nc(Br)nc1Br)N1CCOCC1 was A: 10%; B: -10.56%.
Result for COc1cccc(S(=O)(=O)N2C[C@@H](O)[C@H](N(C)C)C2)c1 was A: 14.56%; B: -12.62%.
Result for O=C(c1ccc(-n2cc(Br)cn2)cc1)N1CCN(c2cnccn2)CC1 was A: 7.88%; B: -3.938%.
Result for CC(CCn1cccn1)Nc1ccc(-c2nccn2C)nn1 (stereo not given) was A: 18.82%; B: -25.1%.
Result for Cc1nc(CN2CCCC(c3nc(C)n4c(C)c(C)sc34)C2)co1 (stereo not given) was A: -0.6431%; B: -26.04%.
Result for CN(C)[C@@H]1CCN(c2ncccn2)[C@H]1Cc1ccncc1.O=C(O)C(F)(F)F.O=C(O)C(F)(F)F was B: -24.57%.
Result for Cc1ccc(-c2nc(CNS(=O)(=O)N(C)C)[nH]c2-c2ccccn2)cc1 was A: 9.415%; B: 101.5%.
Result for CNC(=O)c1cc(-c2ccccc2)nc2ncnn12 was A: 9.677%; B: -5.898%.
Result for O=C(CCc1nc(-c2cccnc2)no1)N(CC1CCOC1)C1CC1 (stereo not given) was A: 1.989%; B: -8.978%.
Result for O=C(Cc1ccsc1)N1C[C@@H]2CN(Cc3ccoc3)CCO[C@@H]2C1 was A: 4.377%.
Result for COc1ncccc1CN1C[C@H](C(=O)N2CCCO2)[C@@H]2CCO[C@@H]2C1 was A: 4.886%.
Result for Cc1occc1C(=O)N1CCCC2(CCN(c3ccsc3)C2=O)C1 (stereo not given) was A: 9.89%; B: -11.03%.
Result for Cc1csc(CN2CC[C@H]3C[C@@H](c4nnc(C)[nH]4)O[C@@H]3C2)n1 was A: 15%.
Result for Cc1cc(F)cc(CN2CCCn3nc(CNS(C)(=O)=O)cc3C2)c1 was A: 12.09%; B: 12.04%.
Result for Cc1ccccc1CSc1nc(N)cc(N2C[C@H](O)[C@@H](N(C)C)C2)n1 was A: 21.19%; B: 1.175%.
Result for CS(=O)(=O)N1CCOCC12CCN(Cc1ccc(F)cc1)CC2 was A: 5.464%.
Result for O=C(O)C(F)(F)F.[H][C@@]12CCCO[C@]1([H])[C@@H](Oc1ccccn1)CN2C(=O)c1ccoc1C was B: 5.445%.
Result for CC(C)NC1CCc2c(ccc(=O)n2CCN(C)C)C1 (stereo not given) was A: -1.742%.
Result for c1nc(N2CCCC2Cn2cncn2)c2ccsc2n1 (stereo not given) was A: 1.748%; B: -12.6%.
Result for CC(=O)Nc1nc(C(=O)N2CCCC(n3nc(C)nc3C)C2)cs1 (stereo not given) was A: 12.57%; B: 5.058%.
Result for COc1ccc(N2Cc3nc(N)ncc3C2=O)cc1 was A: 7.365%; B: -10.7%.
Result for O=C1CCCN1Cc1ncn2c1CN(C(=O)N1CCCC1)CCC2 was A: 17.77%.
Result for Cc1noc(C)c1CNCc1nn(-c2ccccc2)c2c1CCC2 was A: -2.005%; B: -5.3%.
Result for O=C(O)C(F)(F)F.O=C(O)C(F)(F)F.c1ccc(OC2COC3(CCN(CC4CC4)CC3)C2)nc1 (stereo not given) was B: -6.358%.
Result for O=C(O)C(c1ccc2[nH]ccc2c1)N1CCOCC1 (stereo not given) was B: -31.05%.
Result for COc1ccc(C(C)Nc2nc3c(C)nn(C)c3c(=O)n2C)cc1 (stereo not given) was A: -13.65%; B: -9.531%.
Result for COCCNC(=O)Nc1ccc(CN2CCOC2=O)cc1 was A: 13.86%; B: -30.05%.
Result for CCOC(=O)N1CC(C)=C(C)CN1C(=O)Nc1ccc(Cl)c(Cl)c1 was A: 12.7%; B: -3.682%.
Result for Cc1ccoc1C(=O)NC1CCN(Cc2ccccc2C#N)CC1 was A: 24.93%; B: -17.11%.
Result for CN(C)CCOc1ccc(N(C)S(=O)(=O)c2cnn(C)c2)cc1 was A: 19.6%; B: -29.39%.
Result for CC(=O)N(C)C1CCN(C(=O)c2cccc3c2ccn3C)CC1 was A: 6.843%; B: -35.95%.
Result for CCN1C(=O)CC[C@@H]2[C@H]1CCN2C(=O)Cc1cccc(OC)c1 was A: 12.8%.
Result for CC(=O)N1CCc2nc(N(C)C)nc(NCCc3ccccc3)c2CC1 was A: 7.588%; B: 1.045%.
Result for O=C(O)C(F)(F)F.[H][C@@]12COC[C@]1(C(=O)NC1CC(F)(F)C1)CN(Cc1ccccc1)C2 was B: -1.821%.
Result for CNC(=O)c1sc2ccccc2c1C1CCN(c2nc(C)cc(C)n2)C1 (stereo not given) was A: 12.77%; B: 10.92%.
Result for CC(C)COCCC(=O)NS(=O)(=O)c1ccc(Cl)s1 was A: 2.899%; B: 19.39%.

Some entries from above, unchanged:

SMILES,A,B
COc1ccc(N2Cc3nc(N)ncc3C2=O)cc1,7.365,-10.7
Cc1csc(CN2CC[C@H]3C[C@@H](c4nnc(C)[nH]4)O[C@@H]3C2)n1,15,-
CN(C)[C@@H]1CCN(c2ncccn2)[C@H]1Cc1ccncc1.O=C(O)C(F)(F)F.O=C(O)C(F)(F)F,-,-24.57

Source: ChEMBL document CHEMBL3988442, “University of Dundee, Small-Polar-MMV Screening Library” (2021).